Data from the ROBIN nucleic acid binder screens, doi:10.1002/anie.202211358.

Oligonucleotides screened, 5′ to 3′:
T1: TPP riboswitch RNA three-way junction, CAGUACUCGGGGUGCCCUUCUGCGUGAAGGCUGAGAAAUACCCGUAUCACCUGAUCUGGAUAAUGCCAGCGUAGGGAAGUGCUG. About 24,000 compounds screened, about 160 hits.
T2: PreQ1 riboswitch RNA pseudoknot, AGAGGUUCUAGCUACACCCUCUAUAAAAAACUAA. From B. subtilis. About 24,000 compounds screened, about 170 hits.
T3: SAM-II riboswitch RNA pseudoknot, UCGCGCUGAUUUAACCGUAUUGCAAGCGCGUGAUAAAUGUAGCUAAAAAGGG. About 21,000 compounds screened, about 200 hits.

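Compounds were printed on reactive glass slides in duplicate spots, a dye-labelled oligonucleotide was laid over them, and the fluorescence left after washing was read. The data file lists only calls. An earlier report of the laboratory on the PreQ1, TPP and SAM-II riboswitches (doi:10.1038/s41467-019-09493-3) used 1 µM RNA for 2 h and required a mean Z-score above 3 (spot signal-to-noise against the whole library), a score well above that on a control array, and duplicate spots agreeing (coefficient of variation under 100); it then also set aside compounds that hit other targets, which this list keeps. The cut-offs behind this list may differ. These are primary screening calls, not affinities; a compound without a hit may have attached poorly or may still bind in solution.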 “active” means called a hit, “inactive” means screened and not called a hit. The compounds are a random part of those screened. A dash means that no call is listed here.

| # | Compound | T1 | T2 | T3 |
|---|---|---|---|---|
| 1 | `COc1ccc2c(c1)OC[C@]1(CO)CN(CC(=O)N3CCOCC3)C[C@H]21` | inactive | inactive | inactive |
| 2 | `O=C(Nc1ccc(Nc2ccncc2)cc1)c1ccc(Nc2ccnc3ccc([N+](=O)[O-])cc23)cc1` | inactive | inactive | inactive |
| 3 | `COCCN(C)C[C@@H]1CN(c2ccnc3c(C)cc(Cl)cc23)C[C@@H]1CO` | inactive | inactive | inactive |
| 4 | `COc1cccc([C@H]2C[C@@H](c3ccc(F)cc3)Nc3nc(N)nn32)c1` | inactive | inactive | inactive |
| 5 | `O=C(N[C@@H]1CCN(c2nc3ccccc3s2)C[C@H]1O)c1ccccn1` | inactive | inactive | inactive |
| 6 | `C=CCOC(=O)C1=C(C)OC(N)=C(C#N)C12C(=O)Nc1ccc(C)cc12` (centres undefined) | inactive | inactive | inactive |
| 7 | `CCOC(=O)C1=C(C)OC(N)=C(C#N)C1c1ccc2c(c1)OCO2` (centres undefined) | inactive | inactive | inactive |
| 8 | `Cc1ccc([C@H]2CN(C(=O)Cn3c(C4CC4)nc4ccccc43)C[C@@H]2N)o1` | inactive | inactive | inactive |
| 9 | `NC(CCc1nc2ccccc2[nH]1)C(=O)O.O.O` (centres undefined) | inactive | inactive | inactive |
| 10 | `COC(=O)c1c(N)n(-c2cccc(C)c2C)c2nc3ccccc3nc12` | inactive | inactive | inactive |
| 11 | `Cc1ccc(Cl)c(C)c1NC(=O)NC[C@@H]1CCCN1` | inactive | inactive | inactive |
| 12 | `CCOC(=O)c1c(N)nn(C(=O)Cc2ccccc2)c1-c1ccccc1` | inactive | inactive | inactive |
| 13 | `CNc1nc2c(c(=O)n(C)c(=O)n2C)n1CC(O)COc1ccccc1` (centres undefined) | inactive | inactive | inactive |
| 14 | `CC(NC(=O)CCc1cc2n(n1)CCCNC2)c1nc(-c2ccccn2)no1` (centres undefined) | inactive | inactive | inactive |
| 15 | `NC(=O)C1=CC2C3C=CC2(O)C(=O)OC3O1` (centres undefined) | inactive | inactive | inactive |
| 16 | `C=CCn1c(=N)n(CC(O)COc2ccccc2)c2ccccc21` (centres undefined) | inactive | inactive | inactive |
| 17 | `Cc1c(F)cccc1NC(=O)CNCCCCN1CCCC1` | inactive | inactive | inactive |
| 18 | `CCOC(=O)c1c(N)nn(C(C)=O)c1-c1ccccc1` | inactive | inactive | inactive |
| 19 | `N#CC1=C(N)OC2=C(C1c1ccccc1F)S(=O)(=O)N(Cc1ccccc1)c1ccccc12` (centres undefined) | inactive | inactive | - |
| 20 | `COc1ccc(C2(C(=O)NC(C)(C)CO)CCCC2)cc1OC` | inactive | inactive | inactive |
| 21 | `COc1ccc(NS(=O)(=O)c2cc(Br)cnc2N)cc1Cl` | inactive | inactive | - |
| 22 | `Cc1csc(C2=C(N)N(Cc3ccc4c(c3)OCO4)CC2=O)n1` | inactive | inactive | - |
| 23 | `OCC1(CO)CC2(C1)CC(CO)(CO)C2` | inactive | inactive | inactive |
| 24 | `Cc1n[nH]nc1C(=O)N1CCC2(CC1)CNC(C(=O)O)C2` (centres undefined) | inactive | inactive | inactive |
| 25 | `Nc1nc(=O)c2ncn(COCCO)c2[nH]1` | inactive | inactive | inactive |
| 26 | `CCN1c2ccccc2C2=C(C(c3ccc(Cl)cc3)C(C#N)=C(N)O2)S1(=O)=O` (centres undefined) | inactive | inactive | - |
| 27 | `Cc1cc(C)c(NC(=O)CSc2nc3ccc(N)cc3s2)c(C)c1` | inactive | inactive | inactive |
| 28 | `COc1cc(C2C(C#N)=C(N)Oc3cc(N(C)C)ccc32)c(OC)c2c1OCO2` (centres undefined) | inactive | inactive | inactive |
| 29 | `OC1(CNCc2nc(-c3ccncc3)n[nH]2)CNCCOC1` (centres undefined) | inactive | inactive | inactive |
| 30 | `COc1ccc(-c2cn3c4ccccc4nc3n2CCCNC2CCCCC2)cc1.Cl.Cl` | inactive | inactive | inactive |
| 31 | `O=C(N[C@@H]1CCN(C(=O)COc2cccc(F)c2)C[C@H]1O)c1ccccn1` | inactive | inactive | inactive |
| 32 | `CCc1cccc(NC2c3ccccc3C(=O)N2Cc2ccc3c(c2)OCO3)c1` (centres undefined) | inactive | inactive | inactive |
| 33 | `CCNc1oc(-c2ccc(S(=O)(=O)N3CCCCCC3)cc2)nc1C#N` | inactive | inactive | - |
| 34 | `C[C@]12CC[C@H]3[C@@H](CC[C@@]45O[C@@H]4C(O)=C(C#N)C[C@]35C)[C@@H]1CC[C@@H]2O` | inactive | inactive | inactive |
| 35 | `COc1ccc(Br)cc1CNc1cc(C)cc(C)c1` | inactive | inactive | inactive |
| 36 | `N#Cc1nc(-c2ccc(S(=O)(=O)N3CCOCC3)cc2)oc1NC1CC1` | inactive | inactive | - |
| 37 | `Clc1ccc(CNc2c3c(nc4nncn24)CCC3)cc1` | inactive | inactive | - |
| 38 | `CCC(NC1CCN(c2ncccn2)CC1)c1ncnn1CC` (centres undefined) | inactive | inactive | inactive |
| 39 | `CN(CC1(CO)CCCC1)C(=O)c1ccc(CCC(C)(C)O)cc1` | inactive | inactive | inactive |
| 40 | `N#CC1=C(N)OC2=C(C(=O)CC(c3ccccc3)C2)C1c1cccc(Cl)c1` (centres undefined) | inactive | inactive | inactive |
| 41 | `CC(C)c1ncc(CN2CCC3(CCC(=O)N(CCCO)C3)CC2)cn1` | inactive | inactive | inactive |
| 42 | `O=C1C2C(c3ccccc3)C=CC(c3ccccc3)C2C(=O)N1CCO` (centres undefined) | inactive | inactive | inactive |
| 43 | `CCn1c2ccccc2c2nnc(NCCc3ccccc3)nc21` | inactive | inactive | - |
| 44 | `Cc1nnsc1CN(C)c1ccnc(C(=O)NCCO)c1` | inactive | inactive | inactive |
| 45 | `OCc1ncc(-c2ccccc2)s1` | inactive | inactive | inactive |
| 46 | `CN(C)CC=CC(=O)Nc1cc2c(Nc3ccc(F)c(Cl)c3)ncnc2cc1O[C@H]1CCOC1` | inactive | inactive | inactive |
| 47 | `c1cncc(-c2nc3c(c(N4Cc5ccccc5C4)n2)CCNCC3)c1` | inactive | inactive | inactive |
| 48 | `CCOCc1nc2c(c(N3CCSCC3)n1)CCNCC2` | inactive | inactive | inactive |
| 49 | `O=C(O)CCN1c2ccccc2Sc2ccccc21` | inactive | inactive | inactive |
| 50 | `COc1ccccc1OCC(O)CO` (centres undefined) | inactive | inactive | inactive |
| 51 | `CC(C)=CCC1(CO)CCCN(C(=O)CCn2cnnc2)C1` (centres undefined) | inactive | inactive | inactive |

Some entries from above, unchanged:

Compound	T1	T2	T3
O=C(Nc1ccc(Nc2ccncc2)cc1)c1ccc(Nc2ccnc3ccc([N+](=O)[O-])cc23)cc1	inactive	inactive	inactive
CCOCc1nc2c(c(N3CCSCC3)n1)CCNCC2	inactive	inactive	inactive
C=CCOC(=O)C1=C(C)OC(N)=C(C#N)C12C(=O)Nc1ccc(C)cc12 (centres undefined)	inactive	inactive	inactive
COc1ccc(-c2cn3c4ccccc4nc3n2CCCNC2CCCCC2)cc1.Cl.Cl	inactive	inactive	inactive